Source: the supplement of paper PMC3334620
Whole data set: some 33,000 sequences, median “E-score (-0.5 to 0.5)” near -0.0034, cut for the highest 2% near 0.25. The list shows a part of the results.

molecular target: T1, Yap3 (UniProt P38749); assay: PBM E-score (8-mer binding enrichment) (E-score (-0.5 to 0.5)); higher = stronger / more preferred TF binding; conditions: protein concentration: 100 nM; construct: GST-full length
T1 sequence: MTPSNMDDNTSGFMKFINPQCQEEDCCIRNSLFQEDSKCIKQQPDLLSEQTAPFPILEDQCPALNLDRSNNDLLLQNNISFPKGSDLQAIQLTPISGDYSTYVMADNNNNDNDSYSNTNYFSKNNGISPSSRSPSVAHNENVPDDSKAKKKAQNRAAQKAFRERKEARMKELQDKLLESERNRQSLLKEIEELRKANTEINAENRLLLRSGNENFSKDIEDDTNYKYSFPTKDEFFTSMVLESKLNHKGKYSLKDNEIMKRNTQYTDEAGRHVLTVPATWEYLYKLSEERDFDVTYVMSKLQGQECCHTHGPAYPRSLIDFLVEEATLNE
Procedure: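 Universal 'all 10-mer' protein binding microarrays (Agilent AMADID 015681) probed with GST-tagged S. cerevisiae TFs (full-length or DBD) made by in vitro transcription/translation (PURExpress), about 100-200 nM. Bound TF was detected with fluorescent anti-GST. Each ungapped 8-mer (which stands for itself and its reverse complement) is scored by the PBM enrichment score (E-score), a modified Wilcoxon-Mann-Whitney statistic from -0.5 to +0.5, computed with the Universal PBM Analysis Suite. Scale: above 0.35 generally sequence-specific binding.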

Sequence	PBM E-score
CCTCCCCC	-0.297
CATCGAGG	-0.049
AGTGCCCC	-0.218
GTGCTCAA	-0.00113
GTATGCGA	-0.00207
TCGCCTCA	0.0237
CCCGAATC	-0.0671
AGCGTACC	-0.225
ACAGATAA	0.141
GATGTTAA	0.132
AATCAATC	0.139
CTCCGTTA	-0.0621
CAAGGACC	-0.0543
AGGCGGGG	-0.0628
CATTACCA	0.1
ATCCTCCC	-0.0451
AAGCGCAG	-0.0347
ACGTGTAA	0.00157
ATATTCGA	0.0689
ATTATTTA	0.289
TCTCTCCA	-0.00365
TCCCAGAA	-0.107
ACACTGTA	0.124
CCTTACTA	0.281
CCGTGTCA	-0.0779

Sequence	PBM E-score
TCGACTAA	0.0735
AAATGACA	0.208
ATTCCTGA	0.0543
CGCGGAGA	0.075
CTGCTACA	0.035
CCCCCCCC	-0.467
CCGGGGCC	-0.343
TCGAGACA	-0.0118
CCCTGGGC	-0.358
CAAACTTC	0.137
AGGTACTA	0.132
CACTTAGC	0.00252
ACTTGTGG	-0.0694
AAATTTTC	0.047
CCTGTTCA	-0.08
AATTAATG	0.29
CATGACTA	0.126
ACCTATCC	0.0757
AAGGATCG	0.0628
CCCACAAG	0.0125
CAAGGAGC	-0.108
GAGCTGGC	-0.11
GAATGAGC	0.0439
GAGGACGC	-0.1
CCGTAGTC	-0.148

Shown bar-delimited: part of the list above
Sequence | PBM E-score
ACGTGTAA | 0.00157
ATATTCGA | 0.0689
ATTATTTA | 0.289
TCTCTCCA | -0.00365
TCCCAGAA | -0.107
ACACTGTA | 0.124
CCTTACTA | 0.281
CCGTGTCA | -0.0779
TCGACTAA | 0.0735
AAATGACA | 0.208
ATTCCTGA | 0.0543
CGCGGAGA | 0.075
CTGCTACA | 0.035
CCCCCCCC | -0.467
CCGGGGCC | -0.343
TCGAGACA | -0.0118
CCCTGGGC | -0.358
CAAACTTC | 0.137
AGGTACTA | 0.132
CACTTAGC | 0.00252
ACTTGTGG | -0.0694
AAATTTTC | 0.047
CCTGTTCA | -0.08
AATTAATG | 0.29
CATGACTA | 0.126
ACCTATCC | 0.0757
AAGGATCG | 0.0628
CCCACAAG | 0.0125
CAAGGAGC | -0.108
GAGCTGGC | -0.11
GAATGAGC | 0.0439
GAGGACGC | -0.1
CCGTAGTC | -0.148

Remaining list, next part

Sequence	PBM E-score
CGTCCAGC	-0.211
GCATGAGC	-0.00227
ACACAGGA	-0.0593
AAACGACC	0.0558
AAACCTCA	0.0879
ATTGTGGC	0.0693
CACCCCCC	-0.371
CCCCGGTA	-0.332
ACGGAGTC	-0.0179
AGTATCCG	0.1
ATATCCGA	0.241
AAAACAGC	0.177
GTCCGATA	-0.205
CACGGACC	-0.129
AACCCTAG	0.0242
TGTCGCAA	0.0339
AATCATGG	0.127
ATTTAAGG	0.0621
TGAGGGAA	-0.0685
AACGTCTC	-0.0711
CTACGCTA	-0.0909
AGCAGGCC	-0.183
AATAGTCA	-0.00331
GCTCCAAA	-0.217
ATTAATAA	0.405

Sequence	PBM E-score
ATCTCCGG	0.0147
AACGAGCA	-0.0339
ATCCTATG	0.0128
AATGAGGT	0.175
CCCTACAC	-0.0394
CGTCATCA	0.181
TACACGTA	0.121
CTAGTCTC	-0.191
ATAATAGC	0.0686
CAACGCAC	0.0337
GGAGGATA	-0.00306
ATCTCGAA	0.00282
ATTTCTGG	0.141
CTGTGAGC	-0.1
ATTAGTGG	0.243
AAGTTAAG	-0.00518
ACCGTTTA	0.0792
AGCGCTAA	0.132
CTCTATAC	-0.129
CAATCCCC	-0.118
AGACCTAA	-0.0638
TAATACGA	0.0909
TCTAGAAA	0.0342
CAACTGTG	0.0583
AGGGGGCG	-0.288

Sequence	PBM E-score
AGTCTACA	-0.159
CATGCCGA	0.135
CATTAGGC	-0.186
ATACTCAA	0.0765
CTCCAACA	0.141
CATACGAC	0.0835
AGTTCAAC	0.145
AGCGTGAG	-0.122
AATTCGCT	0.289
ATGCAGTG	0.0567
ACGACCTA	0.0267
ACCTTCCA	-0.0266
AGGGCTTA	-0.303
AAATACAG	0.17
GGACTCCC	-0.362
GATATGAC	0.064
CGGACTCA	0.0162
AATAACCC	0.183
TAACAAGA	-0.00233
AATGTGGT	0.114
CTGGGTCA	-0.167
TATAGATA	0.0759
ATGGACTC	-0.147
ACCTATAC	0.0526
ATTGTAAA	0.237

Sequence	PBM E-score
ATTCAACG	0.111
CGTGCCAA	-0.0894
CGTCACTC	-0.215
TCACGCAA	0.164
AGGGGCTA	-0.193
CATGTGCG	0.157
AAATAAAT	0.241
AGTGGTGG	-0.112
CCCTGTTA	0.134
GGCGGCAC	-0.00851
GAGCTGTA	-0.156
AACCAGAT	-0.072
CGGGTCTC	-0.262
CGGACCAA	0.069
GGGAGTTA	-0.0452
AGACTAAC	0.0822
ACCGTAAC	0.0883
CCCTAAAC	-0.226
CGCGAGCA	0.00461
ATAGAATG	0.174
TGCTCGAA	0.0154
GTTTCTGA	0.0779
CCCTCATA	-0.0529
GGGGCAAC	-0.00422
GGCCTGCA	-0.267

Sequence	PBM E-score
ATACTTAG	0.204
AGTTTTCG	0.138
AAGCCCCC	-0.391
CTAAACGC	0.183
GCATGGGC	-0.207
ATTTCTGA	0.0463
TACCACCA	-0.0158
GACCGCGC	-0.163
ATTCGCTG	0.0658
AACCGCTT	-0.0614
ATCGGGAG	-0.102
CGAGAAAC	0.0462
AAGCGGAC	-0.025
CTTCACAA	0.0252
ACGGTGAC	-0.0735
ATCGACAC	-0.00776
CCACGCTC	-0.203
ACAATGAG	-0.052
ACCGGGGC	-0.242
CACGGTGG	-0.0347
GCGAAGTA	0.0543
AAATCAGA	0.104
